These are yes or no findings as the source states them, for the method shown. Some entries that bind do so weakly or less than the wild type.

Assay [1] addresses human transferrin receptor (human) (UniProt P02786). Kind of assay: ELISA, plate-coated human TfR.
Assay [2] shares this target. In words: ELISA on plate-coated human TfR, antibody diluted from 50 nM.

B1: anti-human transferrin receptor antibody 128.1 with VH Y27H mutation (antibody, V domains shown)
VH: EVQLQQSGPELVKPGASMKISCKASGHSFTGYTMNWVKQSHGENLEWIGRINPHNGGTDYNQKFKDKAPLTVDKSSNTAYMELLSLTSEDSAVYYCARGYYYYSLDYWGQGTSVTVSS
VL: QIVLTQSPAIMSASPGEKVTMTCSASSSIDYIHWYQQKSGTSPKRWIYDTSKLASGVPARFSGSGSGTSYSLTISSMEPEDAATYYCHQRNSYPWTFGGGTRLEIR
As to B1, in assay [1], the binding result was “binds”.

B2: anti-human transferrin receptor antibody 128.1 with VH Y98A mutation (antibody, V domains shown)
VH: EVQLQQSGPELVKPGASMKISCKASGYSFTGYTMNWVKQSHGENLEWIGRINPHNGGTDYNQKFKDKAPLTVDKSSNTAYMELLSLTSEDSAVYYCARGYYAYSLDYWGQGTSVTVSS
VL: QIVLTQSPAIMSASPGEKVTMTCSASSSIDYIHWYQQKSGTSPKRWIYDTSKLASGVPARFSGSGSGTSYSLTISSMEPEDAATYYCHQRNSYPWTFGGGTRLEIR
For B2, in assay [2], the binding entry is “no binding (tested: 50 nM)”.

B3: anti-human transferrin receptor antibody 128.1 with VL Y94A mutation (antibody, V domains shown)
VH: EVQLQQSGPELVKPGASMKISCKASGYSFTGYTMNWVKQSHGENLEWIGRINPHNGGTDYNQKFKDKAPLTVDKSSNTAYMELLSLTSEDSAVYYCARGYYYYSLDYWGQGTSVTVSS
VL: QIVLTQSPAIMSASPGEKVTMTCSASSSIDYIHWYQQKSGTSPKRWIYDTSKLASGVPARFSGSGSGTSYSLTISSMEPEDAATYYCHQRNSAPWTFGGGTRLEIR
For B3, the binding entry in assay [1] is on record as “binds”.

B4: anti-human transferrin receptor antibody 128.1 with VH Y99H mutation (antibody, V domains shown)
VH: EVQLQQSGPELVKPGASMKISCKASGYSFTGYTMNWVKQSHGENLEWIGRINPHNGGTDYNQKFKDKAPLTVDKSSNTAYMELLSLTSEDSAVYYCARGYYYHSLDYWGQGTSVTVSS
VL: QIVLTQSPAIMSASPGEKVTMTCSASSSIDYIHWYQQKSGTSPKRWIYDTSKLASGVPARFSGSGSGTSYSLTISSMEPEDAATYYCHQRNSYPWTFGGGTRLEIR
B4: the binding entry in assay [1] was “binds”.

The values above are taken from patent publication US20240317877A1.
